Drawing on publication PMC3364935, this text covers binding for 2 molecules.

These are yes or no findings as the source states them, for the method shown. In cells and extracts the contact can be indirect. Some results given as binding are weak or reduced against the parent protein; the word gives no strength. Sequences can lack the tags named with a protein.

Experiment [1] deals with T1, FLAG-tagged ARID4B, DBA allele (mouse) (UniProt A2CG63).
T1 sequence: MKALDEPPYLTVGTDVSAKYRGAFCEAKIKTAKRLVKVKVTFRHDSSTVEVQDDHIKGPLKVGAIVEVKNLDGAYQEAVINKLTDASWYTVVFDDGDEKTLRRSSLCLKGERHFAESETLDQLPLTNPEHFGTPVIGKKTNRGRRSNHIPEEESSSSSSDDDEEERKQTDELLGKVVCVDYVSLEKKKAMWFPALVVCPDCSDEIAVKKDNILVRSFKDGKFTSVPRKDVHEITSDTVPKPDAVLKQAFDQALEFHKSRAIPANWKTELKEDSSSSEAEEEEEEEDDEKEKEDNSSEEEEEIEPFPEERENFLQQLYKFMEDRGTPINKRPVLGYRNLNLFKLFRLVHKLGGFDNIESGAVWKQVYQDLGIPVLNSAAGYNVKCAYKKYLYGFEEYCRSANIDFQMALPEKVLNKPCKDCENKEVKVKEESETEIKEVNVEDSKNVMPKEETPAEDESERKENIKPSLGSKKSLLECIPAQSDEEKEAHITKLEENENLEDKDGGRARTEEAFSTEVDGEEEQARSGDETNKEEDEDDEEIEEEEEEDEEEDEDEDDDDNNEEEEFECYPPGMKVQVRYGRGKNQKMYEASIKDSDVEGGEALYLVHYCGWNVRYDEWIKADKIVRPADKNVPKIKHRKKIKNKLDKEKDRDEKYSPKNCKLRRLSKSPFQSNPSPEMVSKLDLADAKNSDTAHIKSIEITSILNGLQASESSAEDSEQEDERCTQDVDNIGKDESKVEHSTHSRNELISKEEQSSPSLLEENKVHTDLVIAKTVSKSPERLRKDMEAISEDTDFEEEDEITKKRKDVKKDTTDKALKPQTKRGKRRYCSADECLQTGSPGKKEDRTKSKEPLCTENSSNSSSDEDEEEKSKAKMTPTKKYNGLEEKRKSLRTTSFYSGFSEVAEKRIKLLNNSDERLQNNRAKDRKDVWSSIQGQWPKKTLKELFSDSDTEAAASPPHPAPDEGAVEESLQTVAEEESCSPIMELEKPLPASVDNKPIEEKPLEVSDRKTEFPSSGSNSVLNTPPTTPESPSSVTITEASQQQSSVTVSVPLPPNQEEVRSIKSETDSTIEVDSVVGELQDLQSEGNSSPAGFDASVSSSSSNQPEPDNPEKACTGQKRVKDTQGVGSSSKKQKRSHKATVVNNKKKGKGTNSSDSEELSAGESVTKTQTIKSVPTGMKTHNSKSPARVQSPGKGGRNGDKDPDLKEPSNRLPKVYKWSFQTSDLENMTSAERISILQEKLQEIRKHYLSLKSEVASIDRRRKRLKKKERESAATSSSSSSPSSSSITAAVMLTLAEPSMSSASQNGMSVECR
Put plainly: co-IP; HEK293 cells transiently transfected with FLAG-tagged ARID4B (AKR or DBA) and HA-BRMS1; anti-FLAG immunoprecipitation, overnight at 4°C; HA-BRMS1 by western blot. A general note: Immunoblotting shows a protein as a band on a membrane.

Experiment [2] addresses T2, myc-BRMS1 (UniProt Q9HCU9).
T2 sequence: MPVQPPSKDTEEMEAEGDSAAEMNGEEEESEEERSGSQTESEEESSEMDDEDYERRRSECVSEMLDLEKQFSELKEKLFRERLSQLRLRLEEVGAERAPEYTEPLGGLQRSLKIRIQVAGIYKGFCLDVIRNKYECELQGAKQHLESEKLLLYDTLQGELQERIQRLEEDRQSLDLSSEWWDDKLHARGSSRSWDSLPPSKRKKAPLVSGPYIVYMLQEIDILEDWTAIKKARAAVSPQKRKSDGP
Put plainly: co-IP; HEK293 cells transiently transfected with FLAG-tagged ARID4B (AKR or DBA) and myc-BRMS1; anti-myc immunoprecipitation, overnight at 4°C; FLAG-ARID4B by western blot.

B1: HA-BRMS1 (protein, UniProt Q9HCU9 1-246)
chain: T2 sequence
Consider B1, for which the binding entry in experiment [1] is “binds”.

B2: FLAG-tagged ARID4B, DBA allele (protein, UniProt A2CG63-1 1-1314)
chain: T1 sequence
Consider B2, for which the binding result in experiment [2] is recorded as “binds”.
